Sequences and labels used below:
B1: Alpha-1,4-N-acetylglucosaminyltransferase (protein, UniProt Q14BT6 1-341)
chain: MLKEIYLSLSLVLVFACGLLYQLTMRSQCFFACLPPFSFPQGLDGLLRSGRSIMFIETSERVEPPPMVSCAVESAAKIYPEQPIIFFMKGLRDSVQLTSNTSYPAFSLLSAINNVFFVPLDMERLFKDTPLFSWYTKVNSSTEKHWLHVSSDAARLAIIWKYGGIYMDTDVISLQPIPEENFLAAQGSRHSSNGVFGFLPHHPFLWACMENFVEHYDSTIWGNQGPQLMTRMLRVWCRLKDFHGLGDLKCLNISFLHPQRFYPIPYPQWKRYYQVWDKEPSFNESYALHLWNYMNKEGKTVVRGSKTLVENLYQKHCPKTYRVLIQGAEGTVSKKPGTGSR
B2: Casein kinase II subunit alpha-interacting protein (protein, UniProt Q8CH19 1-720)
chain: MVPLGYNNKYFGYVQDCQQQATDNSPIHYYTGDKQNQSYSQSMCKEQSQNTVTVSPASFNKKAQSTQGSYNRAMKSSSSLYSTCSTTPSKDSLLKNSSYPSWKSLDSSLSHHKSETTSLTSFTSTSSLEPSKISSRSRLLLPKTQTSSSIDLCWKSPSLESNQRVSTSSSTSVQHHEAPSLNIIWTTPSLESNQSEHDSQLCKSKSQKDSSLDRLWSSLLESSQKALSSPSFTNRLQRNSFPPTSSSLEFSRVARNSPLPDCSKPLKIPVSNSNNNVFSLPLSPAKSRKSTPSPHSFLPSRRLSTCQPKPKIVARCDPSTRAINTAVCHPKVQNTASLSDKQRPRQLPSIHPKPNPSGQRVSSPKPCIKNKIASVPCSRLPNKSSVERSVKTEPENEISWALDYSHPCIIKGGSVPVDVVNKIINSISKSTIQKDLSRQILFRRMRGKPNPRPGPRLSSTYSVCLECASAIKSQCNHLSGKRDPRCATLFVIPTPESSTDGKVDVKIILILSLPEKPSSTCFQLPMKDSKSENNLEALDDNLDVLEKITQFFPASESDFIQGLKTKRKCLAVSSESKDLSQEPQSIDWLLYVKNSNGIQLETQVQGPSSSSSSSCSSVSSSSSASSIGRPSPPTPWVDPTPVPVSGYVLAKVRSYHRLPPGTSWLEFIRGSSSDTIKLRQSPPVKAKPVRSHNSKCLKKGKRETSALLRYFQTKFQNEKS
B3: ARF GTPase-activating protein GIT2 (protein, UniProt Q9JLQ2 1-708)
chain: MSKRLRSSDVCADCNGPDPSWASVNRGTFICDECCSVHRSLGRHISQVRHLKHTAWPPTLLQMVETLYNNGANSIWEHSLLDPASIMSGRRKANPQDKVHPNKAEFIRAKYQMLAFVHRLPCREDDSVTAKDLSKQLHSSVRTGNLETCLRLLSLGAQANFFHPEKGSTPLHVASKAGQILQAELLAVYGADPGTQDSSGKTPVDYARQGGHHELAERLIEIQYELTDRLAFYLCGRKPDHKSGQHFLIPQRADSLDLSELAKAAKKKLQSLSNHLFEELAMDVYDEVDRRETDAVWLATQNHSTLVTETTVVPFLPVNPEYSSTRNQGRQKLARFNAHEFATLVIDILSDAKRRQQGSPLSRSKDNVELILRTVSTQHSTESQDNDQPDYDSVASDEDTDVETRASKANRQKLQTLQSENSSLRRQATASACQVQTGSDHKDTASHSSLKRRPSARGSRPMSMYETGSGQKPYLPMGEASHPEESRTRLQPFPTHIGRSALVTSSSSLPSFPSTLSWSRDESARRASRLEKQNSTPESDYDNTACDPEPDDTGSTRKGRQRSMLWQGDGLLPDTAEPHSVPSPTLPSTEDVIRKTEQITKNIQELLRAAQENKHDSYIPCSERIHVAVTEMAALFPKKPKSDTVRTSLRLLTSSAYRLQSECRKALPGDSSLPTDVQLVTQQVIQCAYDIAKAAKQLVTITTKENSS
B4: ARF GTPase-activating protein GIT1 (protein, UniProt Q68FF6 1-770)
chain: MSRKGPRAEVCADCSAPDPGWASISRGVLVCDECCSVHRSLGRHISIVKHLRHSAWPPTLLQMVHTLASNGANSIWEHSLLDPAQVQSGRRKANPQDKVHPIKSEFIRAKYQMLAFVHKLPCRDDDGVTAKDLSKQLHSSVRTGNLETCLRLLSLGAQANFFHPEKGTTPLHVAAKAGQTLQAELLVVYGADPGSPDVNGRTPIDYARQAGHHELAERLVECQYELTDRLAFYLCGRKPDHKNGHYIIPQMADRSRQKCMSQSLDLSELAKAAKKKLQALSNRLFEELAMDVYDEVDRRENDAVWLATQNHSTLVTERSAVPFLPVNPEYSATRNQGRQKLARFNAREFATLIIDILSEAKRRQQGKSLSSPTDNLELSARSQSELDDQHDYDSVASDEDTDQEPLPSAGATRNNRARSMDSSDLSDGAVTLQEYLELKKALATSEAKVQQLMKVNSSLSDELRRLQREIHKLQAENLQLRQPPGPVPPPSLPSERAEHTLMGPGGSTHRRDRQAFSMYEPGSALKPFGGTPGDELATRLQPFHSTELEDDAIYSVHVPAGLYRIRKGVSASSVPFTPSSPLLSCSQEGSRHASKLSRHGSGADSDYENTQSGDPLLGLEGKRFLELSKEDELHPELESLDGDLDPGLPSTEDVILKTEQVTKNIQELLRAAQEFKHDSFVPCSEKIHLAVTEMASLFPKRPALEPVRSSLRLLNASAYRLQSECRKTVPPEPGAPVDFQLLTQQVIQCAYDIAKAAKQLVTITTREKKQ
B5: Rho guanine nucleotide exchange factor 7 β-PIX (protein, UniProt Q9ES28 1-862)
chain: MNSAEQTVTWLITLGVLESPKKTISDPEVFLQASLKDGVVLCRLLERLLPGTIEKVYPEPRNESECLSNIREFLRACGASLRLETFDANDLYQGQNFNKVLSSLVTLNKVTADIGLGSDSVCARPSSHRIKSFDSLGSQSSHSRTSKLLQSQYRSLDMTDNTNSQLVVRAKFNFQQTNEDELSFSKGDVIHVTRVEEGGWWEGTHNGRTGWFPSNYVREIKPSEKPVSPKSGTLKSPPKGFDTTAINKSYYNVVLQNILETEHEYSKELQSVLSTYLRPLQTSDKLSSANTSYLMGNLEEISSFQQVLVQSLEECTKSPEAQQRVGGCFLSLMPQMRTLYLAYCANHPSAVSVLTEHSEDLGEFMETKGASSPGILVLTTGLSKPFMRLDKYPTLLKELERHMEDYHPDRQDIQKSMTAFKNLSAQCQEVRKRKELELQILTEPIRSWEGDDIKTLGSVTYMSQVTIQCAGSEEKNERYLLLFPNLLLMLSASPRMSGFIYQGKLPTTGMTITKLEDSENHRNAFEISGSMIERILVSCTSQQDLHEWVEHLQKQTKVTSVSNPTIKPHSVPSHTLPSHPLTPSSKHADSKPVALTPAYHTLPHPSHHGTPHTTISWGPLEPPKTPKPWSLSCLRPAPPLRPSAALCYKEDLSKSPKTMKKLLPKRKPERKPSDEEFAVRKSTAALEEDAQILKVIEAYCTSAKTRQTLNSTWQGTDLMHNHVLADDDQSSLDSLGRRSSLSRLEPSDLSEDSEYDSIWTAHSYRMGSASRSRKESAPQVLLPEEEKIIVEETKSNGQTVIEEKSLVDTVYALKDEVQELRQDNKKMKKSLEEEQRARKDLEKLVRKVLKNMNDPAWDETNL
B6: Rho guanine nucleotide exchange factor 6 α-PIX (protein, UniProt Q8K4I3 1-771)
chain: MNPEERLVTWLISLGVLESPKKTVCDPEEFLKSSLKNGVVLCKLINRLLPGSVEKYCLEPQTEADCIDNINDFLKGCATLQVEVFEPDDLYSGANFSKVLNTLLAVNKATEDQLSERPCGRSSSLSAATSSQTNPQVAVPSTAPEQHSEEKAEMTENGSHQLIVKARFNFKQTNEDELSVCKGDIIYVTRVEEGGWWEGTLNGRTGWFPSNYVREIKPSERPLSPKAIKGFDTAPLTKNYYTVVLQNILDTEKEYAKELQSLLVTYLRPLQSNNNLSTVEFTCLLGNFEEVCTFQQTLCQALEECSKFPENQHKVGGCLLNLMPHFKSMYLAYCANHPSAVNVLTQHSDDLERFMENQGASSPGILILTTSLSKPFMRLEKYVTLLQELERHMEDTHPDHQDILKAIIAFKTLMGQCQDLRKRKQLELQILSEPIQAWEGDDIKTLGNVIFMSQVVMQHGACEEKEERYFLLFSSVLIMLSASPRMSGFMYQGKIPIAGMVVNRLDEIEGSDCMFEITGSTVERIVVHCNNNQDFQEWMEQLNRLTKGPTSCGSLSKTSSSSCSTHSSFSSTGQPRGPLEPPQIIKPWSLSCLRPAPPLRPSAALGYKERMSYILKESSKSPKTMKKFLHKRKTERKASEEEYVIRKSTAALEEDAQILKVIEAYCTSASFQQGTRKDSVPQVLLPEEEKLIIEETRSNGQTIIEEKSLVDTVYALKDEVKELKQENKKMKQCLEEELKSRKDLEKLVRKLLKQTDECIRSESSSKTSILQ

Amino acid sequences for entries named in this document (tags omitted).
UniProt Q8CIN4: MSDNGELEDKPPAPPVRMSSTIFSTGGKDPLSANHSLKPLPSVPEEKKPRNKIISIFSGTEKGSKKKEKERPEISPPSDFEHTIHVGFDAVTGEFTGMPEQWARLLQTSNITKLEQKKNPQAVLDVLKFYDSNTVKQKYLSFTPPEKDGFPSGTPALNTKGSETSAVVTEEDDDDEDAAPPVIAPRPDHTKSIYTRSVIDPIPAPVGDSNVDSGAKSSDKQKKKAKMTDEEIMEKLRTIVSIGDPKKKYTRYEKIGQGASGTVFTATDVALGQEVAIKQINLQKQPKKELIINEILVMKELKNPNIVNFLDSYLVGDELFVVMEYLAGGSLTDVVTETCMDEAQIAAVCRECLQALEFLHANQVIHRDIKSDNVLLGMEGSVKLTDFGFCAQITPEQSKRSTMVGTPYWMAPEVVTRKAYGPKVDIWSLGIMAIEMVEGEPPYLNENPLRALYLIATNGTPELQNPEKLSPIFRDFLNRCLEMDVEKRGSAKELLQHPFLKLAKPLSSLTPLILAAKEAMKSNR
UniProt Q7TPR4: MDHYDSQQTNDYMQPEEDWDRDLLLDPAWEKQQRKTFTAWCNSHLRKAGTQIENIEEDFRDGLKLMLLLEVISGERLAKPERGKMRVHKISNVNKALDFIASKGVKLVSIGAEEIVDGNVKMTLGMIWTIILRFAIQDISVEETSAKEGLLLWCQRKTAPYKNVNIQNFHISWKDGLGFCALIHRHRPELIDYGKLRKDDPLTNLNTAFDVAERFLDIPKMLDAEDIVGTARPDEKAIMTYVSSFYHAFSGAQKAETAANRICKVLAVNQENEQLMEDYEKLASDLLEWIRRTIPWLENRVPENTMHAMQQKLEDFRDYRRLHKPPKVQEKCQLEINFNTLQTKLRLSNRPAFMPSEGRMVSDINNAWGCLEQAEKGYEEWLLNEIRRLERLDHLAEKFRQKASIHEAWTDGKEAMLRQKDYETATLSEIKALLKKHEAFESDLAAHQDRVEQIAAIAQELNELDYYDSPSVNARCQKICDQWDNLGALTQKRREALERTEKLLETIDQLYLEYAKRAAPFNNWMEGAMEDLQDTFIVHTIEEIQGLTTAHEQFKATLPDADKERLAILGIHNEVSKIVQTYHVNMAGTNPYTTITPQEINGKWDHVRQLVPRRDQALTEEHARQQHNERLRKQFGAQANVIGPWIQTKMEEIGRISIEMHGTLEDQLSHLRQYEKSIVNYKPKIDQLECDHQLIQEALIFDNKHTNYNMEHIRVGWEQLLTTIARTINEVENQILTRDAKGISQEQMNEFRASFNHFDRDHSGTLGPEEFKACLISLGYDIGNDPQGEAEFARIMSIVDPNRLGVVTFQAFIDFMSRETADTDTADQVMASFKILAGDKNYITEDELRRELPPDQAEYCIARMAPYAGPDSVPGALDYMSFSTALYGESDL
UniProt P99024: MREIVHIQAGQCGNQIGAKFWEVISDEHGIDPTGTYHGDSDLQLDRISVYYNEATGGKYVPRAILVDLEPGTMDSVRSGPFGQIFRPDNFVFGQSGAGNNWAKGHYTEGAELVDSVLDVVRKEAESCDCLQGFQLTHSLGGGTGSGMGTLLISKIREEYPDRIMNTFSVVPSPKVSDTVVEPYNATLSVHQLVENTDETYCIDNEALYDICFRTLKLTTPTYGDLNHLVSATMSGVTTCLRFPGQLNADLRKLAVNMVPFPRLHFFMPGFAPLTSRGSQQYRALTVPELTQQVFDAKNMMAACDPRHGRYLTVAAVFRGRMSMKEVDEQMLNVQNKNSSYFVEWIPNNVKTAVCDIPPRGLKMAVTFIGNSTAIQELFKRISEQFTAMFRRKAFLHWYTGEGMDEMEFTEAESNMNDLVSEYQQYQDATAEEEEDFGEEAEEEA
UniProt P15331: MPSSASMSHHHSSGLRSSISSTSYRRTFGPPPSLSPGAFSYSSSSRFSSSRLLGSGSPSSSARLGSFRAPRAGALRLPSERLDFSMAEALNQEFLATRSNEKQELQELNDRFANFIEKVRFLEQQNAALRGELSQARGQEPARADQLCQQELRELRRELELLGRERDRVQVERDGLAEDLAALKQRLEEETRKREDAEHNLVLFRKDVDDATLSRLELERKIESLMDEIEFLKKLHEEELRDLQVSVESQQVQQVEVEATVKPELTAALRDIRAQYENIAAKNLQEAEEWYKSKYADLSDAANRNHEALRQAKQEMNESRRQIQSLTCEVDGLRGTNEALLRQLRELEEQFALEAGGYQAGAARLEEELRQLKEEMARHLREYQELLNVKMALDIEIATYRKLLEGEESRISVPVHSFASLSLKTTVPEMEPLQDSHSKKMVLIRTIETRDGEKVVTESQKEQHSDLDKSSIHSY
UniProt Q80ZM5: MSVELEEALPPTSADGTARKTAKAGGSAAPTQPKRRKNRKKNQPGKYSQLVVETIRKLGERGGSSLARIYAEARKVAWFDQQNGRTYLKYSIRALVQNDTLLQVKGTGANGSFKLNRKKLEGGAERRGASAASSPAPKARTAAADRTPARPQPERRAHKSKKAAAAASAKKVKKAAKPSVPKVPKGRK

No constants are given. Whether binding was seen depends on the method and setting. In cells and extracts the contact can be indirect. Here binding means that the protein was enriched with, or labelled near, the bait; the list need not be complete. For some of these results: Where a sequence is shown, tags or fusion partners need not be part of it.

The target of the first test is Serine/threonine-protein kinase PAK2 (mouse (endogenous in Neuro2A)) (UniProt Q8CIN4). The experiment in a line: affinity purification with mass spectrometry; PAK2 immunoprecipitated with PAK2 antibody-conjugated beads (2 h) from lysates (PBS pH 7.4, 1% DDM) of Neuro2A cells treated without or with PQA-18 100 nM for 30 min in the absence or presence of anti-IL-31Rα antibody 50 ng/ml; washed with PBS, 0.05% …; tryptic peptides analysed by LC/MS/MS; normal rabbit IgG-beads as negative control.
As to “Alpha-actinin-1 (from UniProt Q7TPR4 1-892)”, the binding result is given as “binds”. For the molecule “Tubulin beta-5 chain (from UniProt P99024 1-444)”, the binding result is recorded as “binds”. Regarding Peripherin (from UniProt P15331 1-475), the binding entry was “binds”. Turning to “H1 histone family, member X (from UniProt Q80ZM5 1-188)”, the binding result is reported as “binds”.

A further test has the same target. Described as above. This is another data set of the same source.
On to B1, for which the binding entry is recorded as “binds”. Regarding B2, the binding entry was “binds”. B3: the binding entry is listed as “binds”. Take B4: the binding result is given as “binds”. The same measure, in the same setting: next, B5: “binds”; B6: “binds”.
